Measurements reported in PubChem BioAssay AID1053208 (Peter MacCallum Cancer Centre, 2014)

- Aim: 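Synthetic lethal interactions between gene loss and doxorubicin in osteosarcoma cells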 (primary screen)
- System: mouse osteosarcoma cells, early-passage culture from an engineered mouse model of fibroblastic bone tumour
- Reagent: siRNA pool against mouse genes, 40 nM
- Duration: about 120 h (48 h before drug, then 72 h with drug)
- Treatment: doxorubicin 100 nM for 72 h, roughly 30-40% inhibitory dose
- Measurement: 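Luminescent ATP signal taken as viability with or without 100 nM doxorubicin for 72 h; mean of two wells set against non-targeting siRNA and turned into robust z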
- Scale: viability z-score with doxorubicin: higher = more viable cells under doxorubicin; viability z-score without drug: higher = more viable cells with knock-down alone
- Call rule: 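a pool counts as active when its viability z-score with doxorubicin is -2 or below and its z-score without drug lies between -2 and 2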
The deposit covers about 17,000 reagents; this is an unselected part. In the full data, 788 (4.7%) were called active. 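Calls rest on z-score classes alone; an extra cut-off of viability at most 70% of control was not applied to them.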 Not all columns of the deposit are shown.

The first 2 records, to show the layout:
| target | combined z-score class | viability z-score with doxorubicin | viability z-score without drug | call |
| --- | --- | --- | --- | --- |
| Dlg5 (GeneID 71228) | no change with or without drug | 0.9 | 0.51 | inactive |
| Il4 (GeneID 16189) | no change with or without drug | -1.12 | -1.18 | inactive |

Main list, from the first entry:
| target | combined z-score class | viability z-score with doxorubicin | viability z-score without drug | call |
| --- | --- | --- | --- | --- |
| Dlg5 (GeneID 71228) | no change with or without drug | 0.9 | 0.51 | inactive |
| Il4 (GeneID 16189) | no change with or without drug | -1.12 | -1.18 | inactive |
| Cemip (GeneID 80982) | no change with or without drug | -0.9 | 1.52 | inactive |
| Mpp2 (GeneID 50997) | no change with or without drug | -1.12 | -1.01 | inactive |
| Nat2 (GeneID 17961) | no change with or without drug | 1.12 | 0.17 | inactive |
| Cdkl1 (GeneID 71091) | low cell count without drug only | -1.12 | -2.19 | inactive |
| Ang2 (GeneID 11731) | low cell count with doxorubicin only | -2.25 | -0.51 | active |
| Casp6 (GeneID 12368) | no change with or without drug | 1.69 | 1.85 | inactive |
| Mal2 (GeneID 105853) | no change with or without drug | -1.57 | -0.84 | inactive |
| Ssr2 (GeneID 66256) | no change with or without drug | -0.45 | -0.34 | inactive |
| Tcap (GeneID 21393) | no change with or without drug | -0.22 | 0.17 | inactive |
| Slc52a3 (GeneID 69698) | no change with or without drug | -1.12 | 0 | inactive |
| Scgb3a2 (GeneID 117158) | no change with or without drug | 0.45 | -0.51 | inactive |
| Emid1 (GeneID 140703) | no change with or without drug | -0.9 | -0.17 | inactive |
| Ifng (GeneID 15978) | no change with or without drug | -1.35 | -1.69 | inactive |
| Ctsj (GeneID 26898) | no change with or without drug | 0.67 | 0.67 | inactive |
| Fam185a (GeneID 330050) | no change with or without drug | 0.22 | -0.67 | inactive |
| Itch (GeneID 16396) | no change with or without drug | -0.67 | -0.84 | inactive |
| Stk17b (GeneID 98267) | no change with or without drug | 1.57 | -0.17 | inactive |
| Alpk3 (GeneID 116904) | no change with or without drug | 0.34 | 0.34 | inactive |
